The target of this series is T1, phAimR wild type (Bacillus phage phi3T) (UniProt P0DOE3).
T1 sequence (looked up, limits assumed): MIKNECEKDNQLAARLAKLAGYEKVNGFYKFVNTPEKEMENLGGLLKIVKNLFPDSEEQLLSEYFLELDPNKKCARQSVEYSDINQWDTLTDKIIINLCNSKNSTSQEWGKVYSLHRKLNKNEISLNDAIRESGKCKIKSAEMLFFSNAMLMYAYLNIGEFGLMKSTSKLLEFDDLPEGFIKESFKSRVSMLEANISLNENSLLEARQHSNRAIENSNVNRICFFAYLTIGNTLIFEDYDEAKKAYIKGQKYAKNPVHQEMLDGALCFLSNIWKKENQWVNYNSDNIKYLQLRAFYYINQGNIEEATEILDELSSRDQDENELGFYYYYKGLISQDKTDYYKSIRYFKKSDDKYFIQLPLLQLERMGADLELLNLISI
Description: EMSA. As to conditions: SAIRGA peptide, 10-fold molar excess, 5 mM MgCl2; EMSA: 25 mM Tris-HCl pH 8.0, 150 mM NaCl, 5 mM MgCl2, 5 mM DTT, 0.1 mg/mL BSA, 10% glycerol, room temperature 10 min, 5 nM probe, protein 0-1 (printed 'M', probably uM); recombinant protein; protein details: N-terminal 6xHis removed with drICE protease; label: FAM.

Construct, isoform or probe ends are uncertain for at least one entry. No signal at the amounts used counts as a negative. Where a protein sequence is shown, tags need not be part of it.

For “GAAATGTCCAGAAATTCAAAAATCAAAAAATAAGAACATGG (double strand) [phi3T target DNA 41 bp, FAM probe]”, the binding result is “no binding”.

The values above are taken from paper PMC8464984, “AimR Adopts Preexisting Dimer Conformations for Specific Target Recognition in Lysis-Lysogeny Decisions of Bacillus Phage phi3T” (Biomolecules, 2021).
